Results deposited as PubChem BioAssay AID1159584 (Peter MacCallum Cancer Centre, 2016).
Shown is one part, drawn at random, of about 18,000 deposited reagents. Not stated in the record: the amount of reagent, the time to read-out.

Screen: 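Knock-downs that harm CDH1-null cells more than parental MCF10A cells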 (primary screen)
Cell system: human MCF10A breast epithelial cells, parental and CDH1-null
Reagent: siRNA against human genes
Measured: 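ATP luminescence (CellTiter-Glo) viability per line relative to mean mock wells over all plates, and the ratio of CDH1-null to parental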
Scale: CDH1-null / parental viability ratio: higher = CDH1-null cells survive relatively better than parental; CDH1-null viability vs mock: higher = more viable CDH1-null cells; parental viability vs mock: higher = more viable parental cells

gene symbol	CDH1-null / parental viability ratio	CDH1-null viability vs mock (fraction of mock)	parental viability vs mock (fraction of mock)
DCAF10 (GeneID 79269)	0.89	0.76	0.85
SOX11 (GeneID 6664)	1.13	0.94	0.83
RAD1 (GeneID 5810)	0.8	0.6	0.75
MAFG (GeneID 4097)	0.99	0.91	0.92
HRAS (GeneID 3265)	0.91	0.62	0.68
OR4C3 (GeneID 256144)	0.96	0.77	0.8
EEF1E1 (GeneID 9521)	1.6	1.04	0.65
TENT4B (GeneID 64282)	0.94	0.66	0.7
GGT6 (GeneID 124975)	0.79	0.38	0.48
OR5D16 (GeneID 390144)	1.16	0.94	0.81
TRMT6 (GeneID 51605)	1	0.84	0.84
GYPB (GeneID 2994)	1.19	1.01	0.85
FCGR1BP (GeneID 2210)	1.53	0.78	0.51
NSUN5P2 (GeneID 260294)	0.91	0.62	0.68
PCDHB14 (GeneID 56122)	1.33	1.1	0.83
ACLY (GeneID 47)	1.27	1.27	1
PAK4 (GeneID 10298)	1.01	0.85	0.84
FOXO3 (GeneID 2309)	0.9	0.92	1.02
SAMD7 (GeneID 344658)	0.98	1.03	1.05
RFC4 (GeneID 5984)	1.06	0.68	0.64
PDIA5 (GeneID 10954)	1.25	0.8	0.64
NKPD1 (GeneID 284353)	0.92	0.78	0.85
RAB3A (GeneID 5864)	1.06	1.07	1.01
MAP4K4 (GeneID 9448)	1.14	1.06	0.93
CALML6 (GeneID 163688)	0.92	0.88	0.96
DDI1 (GeneID 414301)	0.93	0.41	0.44
LIMA1 (GeneID 51474)	0.95	0.84	0.88
KRTAP10-10 (GeneID 353333)	1.09	0.48	0.44
TAF4 (GeneID 6874)	1.03	0.39	0.38
RPL23A (GeneID 6147)	1.03	0.3	0.29
ADHFE1 (GeneID 137872)	1.34	1.1	0.82
BEGAIN (GeneID 57596)	0.92	0.97	1.06
CLIP2 (GeneID 7461)	0.73	0.6	0.82
SLF1 (GeneID 84250)	1.12	0.57	0.51
RNF5 (GeneID 6048)	1.02	1.04	1.02
RAB40A (GeneID 142684)	1	0.68	0.68
HMGCS1 (GeneID 3157)	1.03	1.04	1.01
VPS11 (GeneID 55823)	0.6	0.18	0.3
MYOZ2 (GeneID 51778)	0.88	0.8	0.91
HEATR9 (GeneID 256957)	1.07	0.92	0.86
NUP153 (GeneID 9972)	0.94	0.62	0.66
SNTG1 (GeneID 54212)	0.9	0.6	0.67
MED30 (GeneID 90390)	0.88	0.6	0.68
CD82 (GeneID 3732)	0.84	0.76	0.9
MLLT6 (GeneID 4302)	0.98	1	1.02
BCS1L (GeneID 617)	0.9	0.54	0.6
PFDN1 (GeneID 5201)	0.67	0.56	0.84
ALYREF (GeneID 10189)	0.71	0.44	0.62
TARS2 (GeneID 80222)	0.9	0.88	0.98
BBS12 (GeneID 166379)	1.06	1.02	0.96
WDR27 (GeneID 253769)	0.97	0.59	0.61
CTF1 (GeneID 1489)	0.92	0.77	0.84
DHX36 (GeneID 170506)	1.19	0.88	0.74
KLF8 (GeneID 11279)	0.72	0.62	0.86
UBL3 (GeneID 5412)	0.95	1.02	1.07
TBC1D21 (GeneID 161514)	1.07	0.96	0.9
AGPAT1 (GeneID 10554)	0.93	0.86	0.92
CREBZF (GeneID 58487)	0.96	0.67	0.7
TAS1R2 (GeneID 80834)	1.63	0.62	0.38
NOS3 (GeneID 4846)	1.04	0.84	0.81
KCNK9 (GeneID 51305)	1.07	0.88	0.82
SLC35D1 (GeneID 23169)	1.12	0.92	0.82
GOT2 (GeneID 2806)	1.09	1	0.92
RHEB (GeneID 6009)	0.93	0.7	0.75
IVD (GeneID 3712)	1.3	1.13	0.87
PPP2R5D (GeneID 5528)	1.27	0.89	0.7
SGCA (GeneID 6442)	0.8	0.4	0.5
OR2A4 (GeneID 79541)	0.93	0.52	0.56

Single entries from the entries so far.
For “CDH1-null / parental viability ratio”, DDI1 (GeneID 414301) reads 0.93
TAS1R2 (GeneID 80834), CDH1-null / parental viability ratio → 1.63
UBL3 (GeneID 5412), parental viability vs mock (fraction of mock): 1.07
Under “CDH1-null viability vs mock (fraction of mock)”, CLIP2 (GeneID 7461) is entered as 0.6
For “parental viability vs mock (fraction of mock)”, DHX36 (GeneID 170506) has 0.74
AGPAT1 (GeneID 10554), CDH1-null / parental viability ratio = 0.93
